# Experimental data as given in the supplement of paper PMC5949888.
# Most values lie at the floor of the assay. Slopes are relative: functional sequences can read slightly below zero.
# Tested on: Saccharomyces cerevisiae PS128 hsf1 delta, HSF1(1-493) fusion
# Experiment: growth estimate (transactivation domain function in HSF1 fusion, heat-shock survival) (a.u. (slope of normalised read count over time)); higher = stronger growth at 37°C, i.e. more transactivation activity
# Details: library: random library
# Method: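 Random 60-nt DNA library encoding peptides of up to 20 aa, fused to the C-terminus of yeast HSF1 residues 1-493 (C-terminal TAD deleted) and expressed from the native HSF1 promoter on a CEN plasmid in hsf1-deleted S. cerevisiae PS128. Cells were selected at 37°C on -trp 5-FOA plates for 0, 2, 4, 6 and 8 days and amplicons were sequenced. Growth estimate is the slope of a robust linear fit of total-sum-normalised read counts (normalised to the first time point) over time, using at least 2 replicates. Sequences are classed functional (TAD activity) above a threshold of -0.13, set from stop-codon control sequences.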
row,Substance,growth estimate
1,VLICNSAFFLPTFNAISAYI,< -0.25
2,TGNCRRFRVAVNL,< -0.25
3,RIVRY,< -0.25
4,RTYLWRPILSSILMAERTLV,< -0.25
5,GILSLGLLPHFHIIDCSSFS,< -0.25
6,NLRGCGINLCIGERKSVDSW,< -0.25
7,SDPWISSPAKEPQVCARSSL,< -0.25
8,MTLDTLGRAVEGRLGRRCTF,< -0.25
9,VLYG,< -0.25
10,RWR,-0.243
11,SSGQELPAAPQGPSRSS,< -0.25
12,CGRGGRAS,< -0.25
13,YSGCSGHMTMISSLLGCVRT,< -0.25
14,QLLRHLHVANGGRHIGGARG,< -0.25
15,WLSTECLCQVQLLILVVIVS,< -0.25
16,VFTYFPDVPAFIASAGILWP,< -0.25
17,LGHQWPYGDEAAKAMAETPY,< -0.25
18,ISDGRQ,< -0.25
19,AVIRCKELLERSRMGANGTR,< -0.25
20,ASTSTQWDRMRPSPEVQNVG,< -0.25
21,TAGTIARSRADFTWHSAFRR,< -0.25
22,RSWSEVA,< -0.25
23,RTCTVDMSVRDIGGLLRGKK,< -0.25
24,EEIFRRFYLFR,< -0.25

row,Substance,growth estimate
1,IHFRGR,-0.248
2,QSILSV,< -0.25
3,LKRCVWAL,< -0.25
4,VAIEDRGLSYVSCIISRSVG,< -0.25
5,FWALKYVAAAQ,< -0.25
6,FTPL,< -0.25
7,LWISVNGAMGWVVRLYRSLF,< -0.25
8,ARSGTTRR,< -0.25
9,RTPPGLHALTRVTDHTTH,< -0.25
10,YEVTRSIIRLLISVGQDLQL,< -0.25
11,VRDVLERTLQPSRGRGDRYT,< -0.25
12,SCTAQLHTWLFVESRCVGLP,< -0.25
13,DEGYSGFRTSKCAISTLVQQ,0.159
14,YTFLQTRNYHRSYQFEVFIR,< -0.25
15,FVSYILTVSVGRRKYTNSRL,< -0.25
16,FLSSLARRHVPTFRRKRCGA,< -0.25
17,GLILLSQPRKFCLEPKGGRP,< -0.25
18,RAISAFAGGNGELEDKACGP,< -0.25
19,DSSNQPPFVRADKKQAVTRP,< -0.25
20,PVKTVVLHADK,< -0.25
21,VRLCCCEANGVVSAPDVNLP,< -0.25
22,SPSLGRSINGRSWGEDPRVT,< -0.25
23,HVLYTFEKSRLQLRHDGPTH,< -0.25
24,VASSPQELRLVEAHPPHEQL,< -0.25

row,Substance,growth estimate
1,PWCNEHGEMKVLRKKMIKTL,< -0.25
2,FPSEKVVRIFPCGRLARGTA,< -0.25
3,GCFHGS,< -0.25
4,LCQPAPTRGRDPADTCDATL,< -0.25
5,TPLLLFRVKA,< -0.25
6,GSVE,< -0.25
7,LESASAFPL,< -0.25
8,LRGLAQGDNEIPLCFSACLG,-0.246
9,VTFGRSALPDVYRRWSMMHQ,< -0.25
10,KPTG,< -0.25
11,ISSDQ,-0.243
12,IRAKLRPSVGGDIEA,< -0.25
13,QKATSCIIHGVRMTDLARRG,< -0.25
14,VRWCFGDLPRGGLRMLTSFT,< -0.25
15,LYFYTKRAMGGMDRGGMDSD,< -0.25
16,VVCQKTSTDGLAVPVGTAG,< -0.25
17,ELLILITKSAALDQLVFARS,< -0.25
18,VELVSAIGLELMRTIP,< -0.25
19,EFQDTSS,< -0.25
20,NGHVKKPFVYNIQGAVLAAV,< -0.25
21,AALDTRVALRDMRQNMWFIC,< -0.25
22,ICRLGPGIPPSKPLKRSDLT,< -0.25
23,TETRLGANLFG,< -0.25
24,SQCWLSRASLMYSLDRAEEK,< -0.25

# Laid out differently: entries from further up.
row	Substance	growth estimate
14	VRWCFGDLPRGGLRMLTSFT	< -0.25
21	AALDTRVALRDMRQNMWFIC	< -0.25

# The results go on.

row,Substance,growth estimate
1,QLVLVLMPKKHGCRLKRCSG,< -0.25
2,TSFRVDQFY,< -0.25
3,FVDTAHCLASTGYRTAHEGK,< -0.25
4,SSHFNTVT,< -0.25
5,LANR,< -0.25
6,AITHISWSLVCRIPYSGTLR,< -0.25
7,GLQGGSGRISICGGTPCNPK,< -0.25
8,RFSPQSSPAY,< -0.25
9,QFHLNRNGTFHRYF,< -0.25
10,GYYIEFQV,< -0.25
11,TMP,< -0.25
12,RWM,< -0.25
13,HPWALS,< -0.25
14,YRQTYCVWESQRMGSLLLYV,< -0.25
15,NRWLRVQGKIKRPCIGELCR,< -0.25
16,NILG,< -0.25
17,MIRVRDACCL,< -0.25
18,SSRVL,< -0.25
19,SARPWARVSTV,< -0.25
20,KRHRIQTAEDSHAWHTAFVR,< -0.25
21,NRQHLQTPAI,< -0.25
22,CSGRYG,< -0.25
23,NEEEHRSDHGALVYLADIGW,< -0.25
24,GSGRCESACR,< -0.25

row,Substance,growth estimate
1,GNKRCERLEPGTSGIRDI,< -0.25
2,VPVVSVVRKVSIFRLLSNGQ,< -0.25
3,MGLFSFAPV,< -0.25
4,CPTRLRNI,< -0.25
5,SPVEVHEPQQAELGVSRRQK,< -0.25
6,LRNLTSIY,< -0.25
7,TLRVRRRVARSVCEGGSCGA,< -0.25
8,GEGVDIQLVRYPDNDKSA,< -0.25
9,RSSPLLLCYAVRPVARAYTA,< -0.25
10,FVKT,< -0.25
11,FPPGLIDVHVKRLYGWVTSR,< -0.25
12,EEALEPPRRREPLRAYGRTP,< -0.25
13,RGSAALDLFPVAMNTENRLF,< -0.25
14,VRIALR,-0.239
15,GSQNPQSWIMVIGRKRRRAS,< -0.25
16,GKGWSTEA,< -0.25
17,SGSQTTCVEGTTLSDSSATP,< -0.25
18,VGNQTQLR,< -0.25
19,VDWLAMLERSIVIFQRPGDT,< -0.25
20,VHRE,< -0.25
21,SGKERNCYRVYVGSINRAGI,< -0.25
22,RSRI,< -0.25
23,IGDPGTSGWLARVGTALQDV,< -0.25
24,VGGRLVVPSTANISVGEYCA,< -0.25

# Given with tabs: entries from further up
row	Substance	growth estimate
2	QSILSV	< -0.25
7	LWISVNGAMGWVVRLYRSLF	< -0.25
8	ARSGTTRR	< -0.25
5	TPLLLFRVKA	< -0.25
6	GSVE	< -0.25
9	VTFGRSALPDVYRRWSMMHQ	< -0.25

# Quoted at random: five entries already listed, in no set order.
row,Substance,growth estimate
8,MTLDTLGRAVEGRLGRRCTF,< -0.25
17,ELLILITKSAALDQLVFARS,< -0.25
15,WLSTECLCQVQLLILVVIVS,< -0.25
5,FWALKYVAAAQ,< -0.25
22,SPSLGRSINGRSWGEDPRVT,< -0.25

# (list continues)

row,Substance,growth estimate
1,TLSISK,< -0.25
2,VSHAARYSRESRRTSAHGHR,< -0.25
3,IGLRLELSL,< -0.25
4,GLRPVRKPFDICKLWASSTS,< -0.25
5,PVCPWSPEPICDEHRSTRLV,< -0.25
6,NLRNLFRKE,< -0.25
7,SNGIPQPLEGSGV,< -0.25
8,EFMFYYLVINPSPGSFGGDW,< -0.25
9,VFVFT,< -0.25
10,NYFRAVCVVLRNIYTVVSGV,< -0.25
11,GITAVSSRRCLSCGAFCPGR,< -0.25
12,LRVNGSTVTVSPLSFATLDP,< -0.25
13,NRARGERDCQEDYR,< -0.25
14,LLVLMECRSTPVHHNGDLAR,< -0.25
15,KGPVT,< -0.25
16,PMERQDGCSAQARGVNNWLP,< -0.25
17,RYPQLICGRLVSHLMGT,< -0.25
18,RSTLLDRSNTSVPQITHFAV,< -0.25
19,VTCTFSISIYKFGNSYK,< -0.25
20,DWQSGR,< -0.25
21,RRPVPPSAQRNSN,< -0.25
22,VAQARRPR,-0.246
23,PPLT,< -0.25
24,SLVLGRS,< -0.25

row,Substance,growth estimate
1,AIIQGDWASNAAIRWPRPGL,< -0.25
2,RLSTTESERGCVLTVPGLGV,< -0.25
3,LICYLVKENNLAGHQERVGP,< -0.25
4,VRPI,< -0.25
5,GFFYLFKGKPEVQYPAWCLG,< -0.25
6,SVILGLRRQ,< -0.25
7,ALVTCHEGY,< -0.25
8,TYEPVLDIGPRIV,< -0.25
9,GEARGAVIYAPSVWWLTHQH,< -0.25
10,RSPD,< -0.25
11,QQTNDQVCYSVTTNDCLFSS,< -0.25
12,LLEPPNTWQRTMLFSLRLRL,< -0.25
13,EESRRNGQGPSLYFLTRGGM,< -0.25
14,VKQE,< -0.25
15,RYTPGNLKY,< -0.25
16,RGCQ,< -0.25
17,WGYR,< -0.25
18,TVAMYAD,< -0.25
19,LKARQPEVFEQVILELPHVK,< -0.25
20,VNDRRVAKRGVLGNAYQCHR,< -0.25
21,AGRSQ,< -0.25
22,LCVKNHPECAFGDATRLALI,< -0.25
23,AVKTQAANTEREMKIVGLDR,-0.247
24,LYTTMGRHETELP,< -0.25

row,Substance,growth estimate
1,VGWSGH,< -0.25
2,NPGEELEYAN,< -0.25
3,TAQQCYLEARPARRARKVEI,< -0.25
4,SEGQAPYRAGRPVELGNGKP,< -0.25
5,WPVAGDHATRTGRLTNKDRP,< -0.25
6,HLLTTRIFTLSSEFRPRQPH,< -0.25
7,QGVRRGFRQCLRSAEGCTKL,< -0.25
8,TNH,< -0.25
9,GDAISVNNDESETTIRLWHS,< -0.25
10,RESGPPGVLHGIC,< -0.25
11,NKFGLQHCSGS,< -0.25
12,GKPPPNGSRDPAPEIVNARA,< -0.25
13,TTSRLRDDRVRGPTN,< -0.25
14,VGDVTTERRGIARVSLPAWV,< -0.25
15,WECYPSN,< -0.25
16,PPSVGSGRREPYFTPVARAD,< -0.25
17,RMNQCRRRCS,< -0.25
18,HDTTLGWKSLSQLSGIFPSS,-0.245
19,RPTTLRLLGRATFGAAKRIG,< -0.25
20,LNTHVSPQCGSAA,< -0.25
21,RPWLASGF,< -0.25
22,HIKTALVLTP,< -0.25
23,VLFTTYRP,< -0.25
